Measurements reported in PubChem BioAssay AID1224829 (NIAID, 2016)
This is an unselected part of about 3,800 deposited reagents. 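Calls cover raised and lowered translocation; gene median uses one vendor's three siRNAs; qiagen siRNAs acted more weakly than ambion siRNAs.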 Unmarked entries are inactive. Further read-outs or replicates are left out here.

Test: 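Secondary check of hits that alter LPS-induced p65 translocation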 (follow-up of hits)
Cells: mouse RAW264.7 G9 macrophage reporter cells
Knock-down reagent: single siRNA against mouse genes, 100 nM
Time to read-out: 2 days of siRNA knock-down, then 40 min of LPS before fixing
Challenge: LPS (Salmonella minnesota R595) at 10 ng/ml
Measured: 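Imaging of GFP-p65 after 40 min of LPS; nuclear over perinuclear ring intensity ratio, scaled to plate median and non-targeting control wells, given as z-score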
Scale: p65 translocation z-score: higher = more nuclear NF-kappaB p65 after LPS
Rule for the call: 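Active means the replicate-mean z-score lies beyond plus or minus 2, in either direction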
Meaning of the calls: active = changed p65 translocation (either direction); inactive = no clear change

For Cetn3 [SID315483948], siRNA vendor or control pool ambion single siRNA, the entry reads p65 translocation z-score, replicate mean -3.82 (active).
For Cetn3 [SID315483949], siRNA vendor or control pool ambion single siRNA the deposit lists p65 translocation z-score, replicate mean 2.52 (active).
Cetn3 [SID315483950], siRNA vendor or control pool ambion single siRNA scored p65 translocation z-score, replicate mean -1.29.
Cetn3 [SID315483951], siRNA vendor or control pool qiagen single siRNA showed p65 translocation z-score, replicate mean 2.
Cetn3 [SID315483952], siRNA vendor or control pool qiagen single siRNA gave p65 translocation z-score, replicate mean 3.94 (active).
Cetn3 [SID315483953], siRNA vendor or control pool qiagen single siRNA showed p65 translocation z-score, replicate mean -2.56 (active).
Sftpd [SID315484860], siRNA vendor or control pool ambion single siRNA gave p65 translocation z-score, replicate mean 0.134.
For Sftpd [SID315484861], siRNA vendor or control pool ambion single siRNA the deposit lists p65 translocation z-score, replicate mean -1.31.
With Sftpd [SID315484862], siRNA vendor or control pool ambion single siRNA, the entry reads p65 translocation z-score, replicate mean -3.49 (active).
Sftpd [SID315484863], siRNA vendor or control pool qiagen single siRNA showed p65 translocation z-score, replicate mean -1.27.
Sftpd [SID315484864], siRNA vendor or control pool qiagen single siRNA showed p65 translocation z-score, replicate mean 1.03.
For Sftpd [SID315484865], siRNA vendor or control pool qiagen single siRNA the deposit lists p65 translocation z-score, replicate mean -1.3.
